The test has as its system P388 leukemia ip, CD2F1 mice, survival T/C. The experiment in a line: NCI In Vivo Anticancer Drug Screen. Data for tumor model P388 Leukemia (intraperitoneal) in CD2F1 (CDF1) mice. The conditions noted are these: T/C endpoint: median survival time, higher T/C = longer survival.
The mark [1] stands for this setting: dose: 12.5 mg/kg/injection, schedule: Q01DX005 (ip), vehicle: Klucel (hydroxypropylcellulose) (HPC).
Where [2] appears, read: dose: 25.0 mg/kg/injection, schedule: Q01DX005 (ip), vehicle: Klucel (hydroxypropylcellulose) (HPC).
Setting [3] is: dose: 200.0 mg/kg/injection, schedule: Q01DX005 (ip), vehicle: Klucel (hydroxypropylcellulose) (HPC).
Where [4] appears, read: dose: 240.0 mg/kg/injection, schedule: Q01DX005 (ip), vehicle: saline with Tween-80.
The mark [5] stands for this setting: dose: 200.0 mg/kg/injection, schedule: Q01DX005 (ip), vehicle: saline with Tween-80.
Setting [6] is: dose: 400.0 mg/kg/injection, schedule: Q01DX009 (ip), vehicle: saline with Tween-80.
The mark [7] stands for this setting: dose: 40.0 mg/kg/injection, schedule: Q01DX005 (ip), vehicle: water.

Experimental findings from PubChem BioAssay AID330 (DTP/NCI, 2004) are described below.

Each structure is given as a SMILES string. The list shows only some results of the screen, not a fair sample: it gathers tests that were run many times, whatever their T/C, doses with no T/C, and many T/C values between a quarter and a half above the control. Further doses and runs are listed elsewhere. T/C: endpoint of the treated group in % of that of the vehicle group. Some entries give survivors of the animals treated and no T/C: the source holds a T/C of zero for them, seemingly a mark for toxic or unscored doses. Some survivor counts are full or nearly so, which does not show that the dose was tolerated: the source hardly ever lists a survival T/C far under the control, and the zero likely stands for such cases as well. Survivors were counted at the toxicity check, usually on the fifth day, unless a day is given; later deaths do not show. Schedules are NCI's codes, read here as Q, the interval in days (D) or hours (H), X, the number of doses. For survival time, the PubChem record calls one and a half times the control and up active, and a quarter to a half above the control has no call in these data; cut-offs in other NCI protocols can differ. Some doses were run more than once; the values are given in rising order. Some T/C values carry the count of animals alive at the toxicity check (mostly the fifth day); without a count, all were alive then.

`CC1CN=C(c2ccc(NC(=O)NCCCNC(=O)Nc3ccc(C4=NCC(C)N4)cc3)cc2)N1` (stereo not drawn): the T/C under setting [1] was 125 % of control and the T/C under setting [2] is 134 % of control. Moreover, the survivor count runs as follows: (dose: 100.0 mg/kg/injection, schedule: Q01DX005 (ip), vehicle: Klucel (hydroxypropylcellulose) (HPC)) 3 of 6; under setting [3], 0 of 6.
For `C1CCC2(CC1)CSC2.[Br][Hg][Br]`, for the setting “dose: 25.0 mg/kg/injection, schedule: Q01DX001 (ip), vehicle: saline with Tween-80”, the survivor count is 1 of 6.
As to `COc1cccc2c1C(=O)c1c(O)c3c(c(O)c1C2=O)CC(O)(C(C)=O)CC3OC1CC(N=CN(C)C)C(O)C(C)O1` (stereo not drawn), the T/C reads like this: (dose: 25.0 mg/kg/injection, schedule: Q04DX003 (ip), vehicle: distilled water + Tween-80) 129 and 137 % of control; (dose: 50.0 mg/kg/injection, schedule: Q04DX003 (ip), vehicle: distilled water + Tween-80) 128 % of control; (dose: 100.0 mg/kg/injection, schedule: Q04DX003 (ip), vehicle: distilled water + Tween-80) 134 % of control; (dose: 200.0 mg/kg/injection, schedule: Q04DX003 (ip), vehicle: distilled water + Tween-80) 137 % of control.
`Cc1ccc2ccc3ccc(CBr)nc3c2n1`: the survivor count (dose: 25.0 micromoles/kg, schedule: Q01DX005 (ip), vehicle: other) is on record as 1 of 6.
For `CCCCCCCCCCCCCCCC[N+]1(CC)CCCCCC1`, the survivor count is, setting by setting: (dose: 0.04 mg/kg/injection, schedule: Q01DX009 (ip), vehicle: saline) 6 of 6; (dose: 0.19 mg/kg/injection, schedule: Q01DX009 (ip), vehicle: saline) 0 of 6; (dose: 0.39 mg/kg/injection, schedule: Q01DX009 (ip), vehicle: saline) 6 of 6; (dose: 0.78 mg/kg/injection, schedule: Q01DX009 (ip), vehicle: saline) 2 of 6; (dose: 1.56 mg/kg/injection, schedule: Q01DX009 (ip), vehicle: saline) 3 of 6; (dose: 3.12 mg/kg/injection, schedule: Q01DX009 (ip), vehicle: saline) 0 of 6. Also, the survivor count is, setting by setting: (dose: 6.25 mg/kg/injection, schedule: Q01DX009 (ip), vehicle: saline) 0 of 6; (dose: 12.5 mg/kg/injection, schedule: Q01DX009 (ip), vehicle: saline) 0 of 6; (dose: 50.0 mg/kg/injection, schedule: Q01DX009 (ip), vehicle: saline) 1 of 6; (dose: 100.0 mg/kg/injection, schedule: Q01DX009 (ip), vehicle: saline) 0 of 6; (dose: 200.0 mg/kg/injection, schedule: Q01DX009 (ip), vehicle: saline) 0 of 6.
Take `COc1ccccc1NC(=O)CC(=O)N1N=C(C)C(N=Nc2cccc(C(=O)O)c2)C1=O` (stereo not drawn): the survivor count under setting [4] is recorded as 2 of 6.
Regarding `Cc1ccccc1-n1c(=S)n(-c2ccc(Cl)cc2)c2nc3ccccc3nc1/c2=N/Nc1ccccc1`, the survivor count (dose: 100.0 mg/kg/injection, schedule: Q01DX005 (ip), vehicle: saline with Tween-80) was 4 of 6 and the survivor count under setting [5] is listed as 3 of 6.
Consider `Nc1c(-c2nc3ccc(C4=NCCN4)cc3[nH]2)[nH]c2cc(-c3nc4ccc(C5=NCCN5)cc4[nH]3)ccc12`, for which the survivor count under setting [3] is 0 of 6.
Regarding `O=C(NC(=O)C1CCC(=O)N1Cc1ccccc1)NC1CCC(=O)N1Cc1ccccc1` (stereo not drawn), under setting [4], the survivor count is 6 of 6.
As to `CN(C)c1ccc(C=NCCCN=Cc2ccc(N(C)C)cc2)cc1`, the survivor count is, setting by setting: (dose: 200.0 mg/kg/injection, schedule: Q01DX009 (ip), vehicle: saline with Tween-80) 3 of 6; under setting [6], 1 of 6.
As for `CC[C@@]1(O)C[C@H](OC2CC(N(C)C)C(OC3CC(O)C(O[C@@H]4O[C@@H](C)C(=O)C=C4N)C(C)O3)C(C)O2)c2c(cc3c(c2O)C(=O)c2c(O)ccc(O)c2C3=O)[C@H]1C(=O)OC` (stereo partly drawn), the T/C (dose: 0.38 mg/kg/injection, schedule: Q01DX009 (ip), vehicle: saline) was 144 % of control [5 of 6 alive]. Also, the survivor count (dose: 3.0 mg/kg/injection, schedule: Q01DX009 (ip), vehicle: saline with Tween-80) was 3 of 6.
Regarding `CC1C[C@@H]2[C@H]([C@@H](O)C[C@@]3(C)[C@H]2CC[C@]3(O)C(=O)CF)[C@@]2(C)CCC(=O)C=C12` (stereo partly drawn), the survivor count under setting [6] is reported as 6 of 6.
On to `C=C1C(=O)O[C@@H]2C[C@@H](C)[C@@H]3C=CC(=O)[C@@]3(C)[C@@H](OC(=O)CCCC(=O)O[C@H]3[C@@H]4C(=C)C(=O)O[C@@H]4C[C@@H](C)[C@@H]4C=CC(=O)[C@]43C)[C@H]12`, for which the survivor count runs as follows: (dose: 6.25 mg/kg/injection, schedule: Q01DX005 (ip), vehicle: Klucel (hydroxypropylcellulose) (HPC)) 3 of 6; under setting [1], 0 of 6; under setting [2], 0 of 6.
Regarding `CCOC(=O)NCNC(=O)OCC`, the T/C (dose: 200.0 mg/kg/injection, schedule: Q01DX009 (ip), vehicle: Klucel (hydroxypropylcellulose) (HPC)) is 128 % of control.
Turning to `CCOc1c(N=Nc2ccccc2[N+](=O)[O-])c(C)nn1C(=S)SC`, the survivor count was 0 of 6 (dose: 60.0 mg/kg/injection, schedule: Q01DX005 (ip), vehicle: Klucel (hydroxypropylcellulose) (HPC)); 0 of 6 (dose: 120.0 mg/kg/injection, schedule: Q01DX005 (ip), vehicle: Klucel (hydroxypropylcellulose) (HPC)); 0 of 6 (dose: 240.0 mg/kg/injection, schedule: Q01DX005 (ip), vehicle: Klucel (hydroxypropylcellulose) (HPC)).
`CCOC(=O)N(O)c1ccc(C)cc1C`: the survivor count under setting [5] is reported as 1 of 5.
As for `C#CCN1CC(OC)Nc2c(O)cccc2C1=O` (stereo not drawn) (tested in a mixture with another compound), under setting [7], the T/C was 128 % of control [4 of 5 alive] and the survivor count was 3 of 5.
Consider `COc1cccc2c1C(=O)c1c(O)c3c(c(O)c1C2=O)C[C@@](O)(C(=O)COC(=O)CCCCC(=O)O)C[C@@H]3OC1CC(NC(=O)C(F)(F)F)C(O)C(C)O1` (stereo partly drawn), for which the T/C (dose: 37.5 mg/kg/injection, schedule: Q04DX003 (ip), vehicle: saline with Tween-80) is 144 % of control. Moreover, the survivor count (dose: 75.0 mg/kg/injection, schedule: Q04DX003 (ip), vehicle: saline with Tween-80) is 2 of 6 on day 9; the survivor count (dose: 150.0 mg/kg/injection, schedule: Q04DX003 (ip), vehicle: saline with Tween-80) was 2 of 6 on day 9; the survivor count (dose: 300.0 mg/kg/injection, schedule: Q04DX003 (ip), vehicle: saline with Tween-80) was 1 of 6 on day 9.
As for `OCC1OC(n2cnc3c(NO)nc(NO)nc32)C(O)C1O` (stereo not drawn), the T/C is, setting by setting: (dose: 9.0 mg/kg/injection, schedule: Q01DX009 (ip), vehicle: saline) 126 % of control; (dose: 9.4 mg/kg/injection, schedule: Q01DX009 (ip), vehicle: saline) 125 % of control; (dose: 23.7 mg/kg/injection, schedule: Q01DX009 (ip), vehicle: saline) 140 % of control; (dose: 36.0 mg/kg/injection, schedule: Q01DX009 (ip), vehicle: saline) 127 and 145 % of control.
Turning to `CC1=C(c2ccccc2)C2(c3ccccc3)[N-][n+]3c(ccc4ccccc43)C2(C)C1=O` (stereo not drawn), the survivor count under setting [3] is listed as 3 of 5.
As to `Cc1ccc(N(C)c2cc(=O)n(C)c(=O)[nH]2)cc1C`, the survivor count under setting [5] was 4 of 5.
For `O=C(O)c1c(Cl)c(Cl)c(Cl)c(Cl)c1-c1c2cc(Br)c(=O)c(Br)c-2oc2c(Br)c(O)c(Br)cc12`, the survivor count under setting [5] was 2 of 5.
With `Cc1noc(C)c1CON`, the survivor count by setting is: (dose: 150.0 mg/kg/injection, schedule: Q01DX009 (ip), vehicle: saline with Tween-80) 6 of 6; (dose: 300.0 mg/kg/injection, schedule: Q01DX009 (ip), vehicle: saline with Tween-80) 6 of 6.
Consider `CCC(SC)C(=O)N(C)c1ccccc1` (stereo not drawn), for which the survivor count (dose: 50.0 mg/kg/injection, schedule: Q01DX009 (ip), vehicle: saline with Tween-80) is 6 of 6.
As for `CNC(=O)On1cccc1C#N`, the survivor count by setting is: (dose: 100.0 mg/kg/injection, schedule: Q04DX002 (ip), vehicle: saline with Tween-80) 0 of 6; (dose: 200.0 mg/kg/injection, schedule: Q04DX002 (ip), vehicle: saline with Tween-80) 0 of 6; (dose: 400.0 mg/kg/injection, schedule: Q04DX002 (ip), vehicle: saline with Tween-80) 0 of 6.
